One assay deals with T1, DnaN (Bacillus subtilis) (UniProt P05649).
T1 sequence: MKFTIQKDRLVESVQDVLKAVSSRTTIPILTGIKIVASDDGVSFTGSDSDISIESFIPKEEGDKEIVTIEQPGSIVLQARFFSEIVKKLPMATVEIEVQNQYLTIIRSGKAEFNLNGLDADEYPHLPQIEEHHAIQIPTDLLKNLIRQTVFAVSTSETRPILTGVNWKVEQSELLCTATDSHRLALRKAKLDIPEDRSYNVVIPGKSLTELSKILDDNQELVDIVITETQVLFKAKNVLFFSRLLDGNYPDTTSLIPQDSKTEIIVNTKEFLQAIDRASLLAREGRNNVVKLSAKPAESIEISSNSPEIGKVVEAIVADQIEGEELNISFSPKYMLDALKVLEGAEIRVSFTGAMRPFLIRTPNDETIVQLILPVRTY
Description: two-hybrid; yeast two-hybrid; fusions to the GAL4 BD (pGBDU-C1) and AD (pGAD-C1), combinational mating of PJ694 alpha and a haploid strains, growth of diploids on selective media SD-LUH and SD-LUA.

Sequences of proteins named here, by UniProt entry; tags and fusion partners are left off. A change or cut given only in a name is not applied to a line headed by its entry.
UniProt P05648: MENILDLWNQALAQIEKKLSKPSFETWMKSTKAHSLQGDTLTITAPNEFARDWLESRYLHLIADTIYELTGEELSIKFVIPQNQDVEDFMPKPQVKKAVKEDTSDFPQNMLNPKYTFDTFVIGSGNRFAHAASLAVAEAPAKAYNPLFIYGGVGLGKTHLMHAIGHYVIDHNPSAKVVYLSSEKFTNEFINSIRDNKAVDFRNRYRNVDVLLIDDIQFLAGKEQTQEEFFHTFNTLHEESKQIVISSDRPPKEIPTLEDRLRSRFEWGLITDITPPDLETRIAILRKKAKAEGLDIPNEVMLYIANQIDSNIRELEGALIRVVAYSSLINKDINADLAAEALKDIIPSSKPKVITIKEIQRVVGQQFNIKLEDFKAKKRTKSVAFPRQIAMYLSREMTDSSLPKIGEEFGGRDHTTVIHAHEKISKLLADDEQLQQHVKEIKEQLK
UniProt P37542: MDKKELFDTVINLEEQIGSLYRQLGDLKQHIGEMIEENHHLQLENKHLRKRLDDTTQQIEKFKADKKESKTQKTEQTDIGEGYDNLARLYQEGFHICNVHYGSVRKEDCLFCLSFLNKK

The next assay has as its target DnaA (Bacillus subtilis) (UniProt P05648). Described as above.

No constants are given. Whether binding was seen depends on the method and setting. Some entries that bind do so weakly or less than the wild type.

On to YabA (from UniProt P37542 1-119), for which the binding result with DnaN (Bacillus subtilis) and with DnaA (Bacillus subtilis) was “binds” throughout.

On to YabA-T71A (from UniProt P37542 1-119), for which the binding result in the assay with DnaN (Bacillus subtilis) and with DnaA (Bacillus subtilis) was “binds” in each case.

As for YabA-T71D (from UniProt P37542 1-119), the binding result with DnaN (Bacillus subtilis) and with DnaA (Bacillus subtilis) was “binds” each time.

These data come from paper PMC5871692.
